Measurements published in PubChem BioAssay AID1347075 (National Center for Advancing Translational Sciences (NCATS), 2019).
The whole screen tested about 400,000 compounds, of which about 5,500 (1.4%) were called active. The inconclusive results got no clear call from the source; some entries with a clear call stand among them for comparison. The call rests on the fitted dose curve; in most records, active means well fitted cell-killing curve with a large enough effect; inconclusive means small, poorly fitted or top-dose-only effect, or effect the other way; inactive means flat fitted curve, though single readings scatter. A potency beside an inconclusive call is a rough fit, not a confirmed value.

Assay: qHTS assay for MDR1-selective chemotherapeutics: Primary screen using the parental adenocarcinoma cell KB-3-1; further: nearly all actives have a fitted effect of over 60% in size
Details: KB-3-1 viability, CellTiter-Glo ATP luminescence, 72 h; activity change, negative = cytotoxic: at 46.1 µM (top of the series)
Outline: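 Multi-concentration cytotoxicity screen in KB-3-1 cells grown in DMEM lacking phenol red with 10% FBS. After 72 h at 37 °C with compound, ATP-dependent luminescence was recorded.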
On the % scale 0 is the no-effect control and ±100 the full control effect; potency means the concentration at half of the fitted maximal effect.

Row | SMILES | activity change, negative = cytotoxic | Potency
1 | Cc1cc(=O)oc2cc(NC(=O)CCCC(=O)O)ccc12 | inconclusive: -65.7% | –
2 | CC(=O)O[C@H]1C(=O)[C@]2(C)[C@H]([C@H](OC(=O)c3ccccc3)[C@]3(O)C[C@H](OC(=O)[C@H](O)[C@@H](NC(=O)c4ccccc4)c4ccccc4)C(C)=C1C3(C)C)[C@]1(OC(C)=O)CO[C@@H]1C[C@@H]2O | – | active: 0.164 µM
3 | CN(C(=O)COC(=O)CNC(=O)CNC(=O)c1ccc(Cl)cc1Cl)c1ccccc1 | – | inactive
4 | COc1ccc(CN(C(=O)c2ccc(-c3ccccc3)[nH]2)C(C(=O)NCC2CCCO2)c2ccc(C)o2)cc1 (stereo not given) | – | inconclusive: 29.1 µM [cytotoxic, single point]
5 | O=C1C(=Cc2cn(-c3ccccc3)nc2-c2ccc(OCc3ccc(Cl)cc3)cc2)SC(=S)N1CCS(=O)(=O)O | – | active: 8.2 µM
6 | Cc1ccc2oc(C(=O)Nc3sc4c(c3C(=O)NCc3ccccc3)CCCC4)cc(=O)c2c1 | – | inconclusive: 29.1 µM [rising, single point]
7 | O=C(N/N=C/c1c(O)ccc2ccccc12)c1cccc(C(F)(F)F)c1 | – | inconclusive: 2.31 µM [cytotoxic, full curve]
8 | Cc1ccccc1C(=O)Nc1ccc(Cl)cn1 | – | inconclusive: 16.4 µM [cytotoxic, single point]
9 | CCCCC1OC23CCCCC2C(C#N)(C(=N)O3)C1(C#N)C#N (stereo not given) | – | inconclusive: 16.4 µM [cytotoxic, single point]
10 | CC(=O)N1CCCc2cc(S(=O)(=O)N(CC(C)C)CC(C)C)ccc21 | – | inactive
11 | O=C(COc1ccccc1Cl)Nc1ccc(N2CCN(C(=O)c3ccccc3)CC2)cc1 | – | inconclusive: 20.6 µM [cytotoxic, single point]
12 | CC(C)COc1ccc2[nH]c3c(c2c1)CCCC3=O | – | active: 0.92 µM
13 | Cc1ccc(N(C(=O)c2csnn2)C(C(=O)NC(C)(C)C)c2ccncc2)cc1 (stereo not given) | – | inactive
14 | Cc1ccc(OCC(=O)OCc2cc(=O)n3c(C)csc3n2)cc1 | – | inactive
15 | O=C(CN1CCN(S(=O)(=O)c2ccc(F)cc2)CC1)Nc1ccccc1C(=O)NC1CC1 | – | inconclusive: 10.3 µM [rising, partial curve, poor fit]
16 | CCC1CCCCN1C(=O)c1ccc(OC2CCN(C(=O)C3CC3)CC2)cc1 (stereo not given) | – | inactive
17 | COc1ccc(CCn2c(=N)c(C(=O)NCC3CCCO3)cc3c(=O)n4cccc(C)c4nc32)cc1 (stereo not given) | – | inconclusive: 11.6 µM [cytotoxic, partial curve, poor fit]
18 | CC1=C(Nc2ccc(C(=O)O)cc2)C(=O)c2ccccc2C1=O | – | inconclusive: 18.4 µM [cytotoxic, single point]
19 | CC(C)(C)c1ccc(/C=N/OCC(=O)NCc2ccccc2)cc1 | – | inconclusive: 29.1 µM [cytotoxic, single point]
20 | CC(=O)c1ccc(OCCCC(=O)NNC(=O)c2ccccn2)cc1 | – | inconclusive: 16.4 µM [cytotoxic, partial curve, poor fit]
21 | O=C(Nc1cccc(-c2cn3c(n2)SCC3)c1)c1ccc2c(c1)OCO2 | – | inconclusive: 2.59 µM [rising, full curve]
22 | COCCCNC(=S)N1CCN(c2nc(-c3ccc(F)cc3)cs2)CC1 | – | inconclusive: 20.6 µM [cytotoxic, single point]

Row | SMILES | activity change, negative = cytotoxic | Potency
23 | Cc1ccc(CNC(=O)C2CCCN(Cc3cnn(-c4ccccc4)c3-n3cccc3)C2)cc1 (stereo not given) | – | inconclusive: 29.1 µM [cytotoxic, single point]
24 | COC(=O)c1c(NC(=O)COc2ccc(OC)cc2)sc2c1CCC(C)C2 (stereo not given) | – | inconclusive: 23.1 µM [cytotoxic, partial curve, poor fit]
25 | Cc1cc2c(cc1C)N[C@]1(C[C@H]3CCC(=O)N4CC[C@@H](C1)[C@@H]34)C(=Nc1ccccc1C)N2 | – | inactive
26 | C=C(C)C(=O)O[C@H]1C/C(C)=C\C(=O)/C=C(\C)[C@H](O)[C@@H]2OC(=O)C(=C)[C@@H]21 | – | inconclusive: 29.1 µM [cytotoxic, single point]
27 | CC1(C(=O)NS(=O)(=O)c2ccc(Cl)s2)CCN1C(=O)C1(c2ccccc2)CCCC1 (stereo not given) | – | inactive
28 | Nc1cc(=O)[nH]c(SCC(=O)N2N=C(c3ccc4ccccc4c3)CC2c2ccccc2)n1 (stereo not given) | – | inconclusive: 29.1 µM [cytotoxic, single point]
29 | CC(C)Oc1ccc(CNC(=O)C2CCCN(S(=O)(=O)c3ccc4c(ccn4C)c3)C2)cc1 (stereo not given) | – | inconclusive: 18.4 µM [cytotoxic, partial curve]
30 | S=c1[nH]c2ccccc2n1CCc1ccncc1 | – | inactive
31 | CCCCCc1c(-c2ccc(OC)cc2)ncn1CCc1ccccc1OC | – | inconclusive: 29.1 µM [cytotoxic, single point]
32 | O=C(COC(=O)CSc1ccc([N+](=O)[O-])cc1)NCCc1ccccc1 | – | inactive
33 | O=C(COC(=O)CNC(=O)C1CCCCC1)NC1CCCC1 | – | inconclusive: 16.4 µM [rising, partial curve]
34 | CCOc1ccc(C(=O)Nc2cc(C)ccn2)cc1 | – | inconclusive: 23.1 µM [cytotoxic, single point]
35 | COc1ccc(OC)c(NC(=O)[C@H](Cc2ccccc2)N2Cc3ccccc3C2=O)c1 | – | inactive
36 | CCCCCc1cc(=O)oc2c(C(CCN(CC)CC)c3cc(OC)c(OC)c(OC)c3)c(OC)cc(OC)c12 (stereo not given) | – | inconclusive: 29.1 µM [cytotoxic, single point]
37 | CC(OC(=O)CN1C(=O)NC2(CCCC2)C1=O)C(=O)c1ccccc1 (stereo not given) | – | inconclusive: 16.4 µM [rising, single point]
38 | N#Cc1nc(Nc2cc(F)cc(F)c2)c2ncn(CCCO)c2n1 | – | inconclusive: 18.4 µM [cytotoxic, partial curve]
39 | Cc1cccn2c(=O)c(/C=C(\C#N)c3nc4ccccc4n3C)c(Oc3ccc(Cl)cc3)nc12 | – | inconclusive: 2.91 µM [cytotoxic, full curve]
40 | Nc1cc(=O)[nH]c(SCCSc2ccccc2F)n1 | – | inconclusive: 0.206 µM [cytotoxic, full curve, poor fit]
41 | COc1cccc(-c2cnc3c(NC(C)=O)cc(-c4ccccc4OC)cn23)c1 | – | inactive
42 | CCN(C[C@H]1N[C@@](CC)(C(=O)OC)[C@H]2C(=O)N(Cc3ccccc3)C(=O)[C@@H]12)C(=O)c1ccc(C(C)(C)C)cc1 | – | inactive
43 | COc1cc(C(=O)N(C)Cc2cccc(OC)c2OC)ccc1OCC(=O)Nc1cccc(C(F)(F)F)c1 | – | inconclusive: 29.1 µM [cytotoxic, single point]
44 | CC(C)n1c(=NC(=O)c2ccco2)c(C#N)cc2c(=O)n3ccccc3cc21 | – | inconclusive: 18.4 µM [cytotoxic, single point]

Row | SMILES | activity change, negative = cytotoxic | Potency
45 | CCc1nc(N2CCN(C(=O)c3ccco3)CC2)c2c3c(sc2n1)CCCC3 | – | inconclusive: 29.1 µM [cytotoxic, single point]
46 | COc1nnc(-c2ccc(N3CCCCC3)c(NC(=O)c3ccc(Cl)cc3)c2)c2ccccc12 | – | inconclusive: 4.11 µM [cytotoxic, full curve, poor fit]
47 | Cn1cccc1/C=C1\SC(=Nc2cccc(O)c2)NC1=O | – | inconclusive: 25.9 µM [cytotoxic, single point]
48 | O=c1[nH]c(SCc2cccc(Cl)c2)nc2c1CCCC2 | – | inconclusive: 9.2 µM [cytotoxic, partial curve, poor fit]
49 | COc1ccc(-c2cc(C(F)(F)F)nc(SCC(=O)Nc3ccc(C(C)=O)cc3)n2)cc1 | – | inactive
50 | COC(=O)[C@]12CCCCC=C1N(CCc1ccc(OC)c(OC)c1)C(=O)[C@H](CC(=O)NCc1cccs1)C2 | – | inactive
51 | CCOC(=O)Cn1c2c(c(=N)c3c1CCC3)CCCC2 | – | inconclusive: 23.1 µM [cytotoxic, single point]
52 | O=C1c2ccccc2C(Nc2ccc(S(=O)(=O)N3CCCCCC3)cc2)N1Cc1ccco1 (stereo not given) | – | inactive
53 | Cc1ccccc1OCCNc1cc(N2CC(C)NC(C)C2)ccc1[N+](=O)[O-] (stereo not given) | – | inconclusive: 29.1 µM [cytotoxic, single point]
54 | O=C(/C=C1\NC2(CCCC2)Cc2ccccc21)N1CCOCC1 | – | inactive
55 | CCc1nc2c(OCCC3CCCCC3)cccn2c1N(C)C(=O)C(C)C | – | inactive
56 | O=C1C2C(c3ccccc3)CC=CC2[C@H](c2ccc3ccccc3c2)N1Cc1ccccc1 (stereo not given in full) | – | inconclusive: 29.1 µM [cytotoxic, single point]
57 | O=C(/C=C/c1cn(CC(O)CN2CCc3ccccc32)c2ccccc12)c1ccc(Br)cc1 (stereo not given) | – | inconclusive: 32.6 µM [cytotoxic, single point]
58 | CC(C)(C)n1nnnc1C(c1ccccc1)N1CCN(c2ncc(C(F)(F)F)cc2Cl)CC1 (stereo not given) | – | inconclusive: 16.4 µM [cytotoxic, single point]
59 | Cc1ccc(Nc2nc(-c3ccc(S(=O)(=O)N4CCCC4)cc3)cs2)cc1C | – | active: 7.31 µM
60 | COc1cc(CN2CC(=O)N(c3ccc(C)cc3)C2=S)cc(OC)c1OC | – | inconclusive: 29.1 µM [cytotoxic, single point]
61 | Cc1ccc([C@H]2C[C@H](O)[C@@H](n3cc(COC(=O)c4ccccc4)nn3)CN2C(=O)c2cccs2)cc1 | – | inconclusive: 25.9 µM [cytotoxic, single point]
62 | CCOC(=O)C1CCN(S(=O)(=O)c2ccc3c(c2)CC(=O)N3C)CC1 | – | inactive
63 | CCOC(=O)c1[nH]c(C)c(CCC(=O)NCc2ccc(OC(C)C)cc2)c1C | – | inactive
64 | O=C(NNc1nc2cc3c(cc2s1)OCO3)c1ccc(F)cc1 | – | inactive
65 | COc1ccc(N(CC(=O)NC2CCCCC2)C(=O)CCC(=O)Nc2nc(C)cs2)cc1 | – | inconclusive: 29.1 µM [rising, single point]

A second format for some results above:
Row,SMILES,"activity change, negative = cytotoxic",Potency
3,CN(C(=O)COC(=O)CNC(=O)CNC(=O)c1ccc(Cl)cc1Cl)c1ccccc1,–,inactive
49,COc1ccc(-c2cc(C(F)(F)F)nc(SCC(=O)Nc3ccc(C(C)=O)cc3)n2)cc1,–,inactive
65,COc1ccc(N(CC(=O)NC2CCCCC2)C(=O)CCC(=O)Nc2nc(C)cs2)cc1,–,"inconclusive: 29.1 µM [rising, single point]"
